PubChem BioAssay AID1259254, NCATS – 2017

Aim: 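Finding genes that stop cells copying their DNA twice in one cycle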 (primary screen)
System: human HCT116 colorectal cancer cells
Knock-down reagent: single siRNA against human genes
Timing: 3 days
Measured: 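Nuclei stained with Hoechst and imaged; cell-cycle phase assigned by DNA content; G2 share scaled per plate, non-targeting siRNA 0%, GMNN siRNA 100%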
Direction: G2 robust z-score: higher = more G2 cells, more excess DNA replication
Call rule: 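Active siRNAs have a G2 robust z of 5 or more median absolute deviations over the median, which in these data means about 38% or higher of GMNN control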
Here is one part, drawn at random, of about 59,000 reagents tested. Of all reagents, about 1,550 (2.6%) are marked active. 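G2 share is only a proxy for re-replication; each gene was hit by three separate siRNAs, and active genes were retested.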 A number with no mark means an inactive call. Reagents against one gene are numbered here. Further read-outs or replicates are left out here. No sequences are given here. Not given: the amount of reagent.

G2 robust z-score, by gene and reagent
ST7L (suppression of tumorigenicity 7 like): #1 -0.539; #2 4.28; #3 -0.353
PDCD1LG2 (programmed cell death 1 ligand 2): #1 -0.835; #2 0.949; #3 2.92
BTBD9 (BTB domain containing 9): #1 1.86; #2 2; #3 0.95
TBXA2R (thromboxane A2 receptor): #1 -1.23; #2 -0.172; #3 6.9 (active)
CPNE5 (copine 5): #1 -0.398; #2 -0.677; #3 -0.43
ENTREP2 (endosomal transmembrane epsin interactor 2): #1 -1.06; #2 -1.31; #3 1.28
GCA (grancalcin): #1 0.503; #2 0.637; #3 0.856
TRIM37 (tripartite motif containing 37): #1 -0.401; #2 1.99; #3 1.16
PPP1R16B (protein phosphatase 1 regulatory subunit 16B): #1 -0.765; #2 -1.37; #3 -1.17
LRRFIP1 (LRR binding FLII interacting protein 1): #1 0.988; #2 -0.835; #3 0.634
PCGF3 (polycomb group ring finger 3): #1 -1.13; #2 -1.24; #3 0.132
AGBL4 (AGBL carboxypeptidase 4): #1 2.36; #2 -0.572; #3 0.654
TH (tyrosine hydroxylase): #1 -0.312; #2 2.95; #3 -0.6
AKIRIN2 (akirin 2): #1 4.9; #2 5.14 (active); #3 7.61 (active)
LOC727808 (retired record): #1 0.802; #2 0.717; #3 -0.968
STEAP1B (STEAP family member 1B): #1 0.485; #2 0.999; #3 0.167
MEDAG (mesenteric estrogen dependent adipogenesis): #1 0.00365; #2 -1.2; #3 0.965
GDI2 (GDP dissociation inhibitor 2): #1 -0.714; #2 -0.337; #3 0.378
LINC01501 (long independently transcribed non-coding RNA 1501): #1 0.161; #2 1.01; #3 2.85
SAMD4A-AS1 (SAMD4A antisense RNA 1): #1 3.8; #2 1.24; #3 1.02
AFAP1L1 (actin filament associated protein 1 like 1): #1 -0.794; #2 2.07; #3 -0.662
RHOBTB1 (Rho related BTB domain containing 1): #1 -0.225; #2 -0.619; #3 1.43
NAA20 (N-alpha-acetyltransferase 20, NatB catalytic subunit): #1 4.91; #2 -0.831; #3 0.0752

Reagents listed above with an active call:
G2 robust z-score, by gene and reagent
TBXA2R (thromboxane A2 receptor): #3 6.9 (active)
AKIRIN2 (akirin 2): #2 5.14 (active); #3 7.61 (active)
